The values below come from patent publication US20160326264A1.

Protein sequences, listed by entry. Tags and fused reporters are not part of them.
UniProt Q04609: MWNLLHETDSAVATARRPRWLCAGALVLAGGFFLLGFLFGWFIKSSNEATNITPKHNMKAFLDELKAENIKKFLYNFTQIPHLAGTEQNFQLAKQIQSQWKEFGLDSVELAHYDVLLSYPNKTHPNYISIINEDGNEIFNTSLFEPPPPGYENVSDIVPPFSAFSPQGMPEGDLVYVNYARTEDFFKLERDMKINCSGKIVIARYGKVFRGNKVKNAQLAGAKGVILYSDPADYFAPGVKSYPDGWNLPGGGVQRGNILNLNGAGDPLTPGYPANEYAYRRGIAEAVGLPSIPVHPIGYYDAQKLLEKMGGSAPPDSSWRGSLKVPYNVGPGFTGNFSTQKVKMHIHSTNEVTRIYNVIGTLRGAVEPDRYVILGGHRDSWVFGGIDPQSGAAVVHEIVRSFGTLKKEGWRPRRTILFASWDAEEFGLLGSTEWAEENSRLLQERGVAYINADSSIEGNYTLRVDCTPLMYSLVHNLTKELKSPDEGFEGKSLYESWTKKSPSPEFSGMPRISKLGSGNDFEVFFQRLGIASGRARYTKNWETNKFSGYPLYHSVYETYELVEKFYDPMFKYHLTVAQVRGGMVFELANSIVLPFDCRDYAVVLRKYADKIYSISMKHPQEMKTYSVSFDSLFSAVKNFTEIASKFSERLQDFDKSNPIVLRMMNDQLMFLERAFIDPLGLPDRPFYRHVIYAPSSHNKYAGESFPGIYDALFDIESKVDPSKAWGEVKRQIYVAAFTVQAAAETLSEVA

For test [1], the target named is endogenous human PSMA (prostate-specific membrane antigen) expressed on LNCaP human prostate cancer cells (human) (UniProt Q04609). The experiment in a line: flow cytometry on LNCaP cells.
Test [2] has the same target. The experiment in a line: flow cytometry on PSMA-expressing LNCaP cells, PE anti-human IgG detection, MFI (FL2) against IgG concentration (nM).

Results are given in words; binding and its absence hold for the method and conditions named. Some results given as binding are weak or reduced against the parent protein; the word gives no strength.

B1: anti-PSMA antibody PSGB11 (antibody, V domains shown)
VH: QVQLVQSGGGLVQPGGSLRLSCAASGFTFSSYWMSWVRQAPGKGLEWVANIKQDGSEKYYVDSVKGRFTISRDNAKNSLYLQMNSLRAEDTAVYYCARVWDYYYDSSGDAFDIWGQGTMVTVSS
VL: EIVLTQSPSTLSASVGDRVTITCRASQSISSWLAWYQQKPGKAPRLLIYAASILQRGVPSRFSGSGSETDFTLTISSLQPEDLATYYCQETYSNLFTFGPGTKVDIK
Turning to B1, the binding result in test [1] and in test [2] was “binds” each time.
